Measurements as given in the supplement of paper PMC10849652.
Some of the results follow.

The chains behind the UniProt entries cited, without tags or fusion partners. Where a name states a change or a piece, a line headed by the entry shows the natural chain unless it says otherwise.
UniProt Q969X1: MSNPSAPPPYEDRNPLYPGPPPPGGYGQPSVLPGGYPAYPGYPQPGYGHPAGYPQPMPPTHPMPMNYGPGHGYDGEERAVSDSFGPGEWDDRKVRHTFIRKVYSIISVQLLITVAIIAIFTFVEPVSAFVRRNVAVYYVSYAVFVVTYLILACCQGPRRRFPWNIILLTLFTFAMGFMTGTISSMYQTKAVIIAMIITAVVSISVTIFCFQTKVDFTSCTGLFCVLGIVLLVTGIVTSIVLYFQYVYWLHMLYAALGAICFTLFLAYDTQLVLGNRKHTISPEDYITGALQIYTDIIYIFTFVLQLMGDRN
UniProt P19438, whole entry, looked up: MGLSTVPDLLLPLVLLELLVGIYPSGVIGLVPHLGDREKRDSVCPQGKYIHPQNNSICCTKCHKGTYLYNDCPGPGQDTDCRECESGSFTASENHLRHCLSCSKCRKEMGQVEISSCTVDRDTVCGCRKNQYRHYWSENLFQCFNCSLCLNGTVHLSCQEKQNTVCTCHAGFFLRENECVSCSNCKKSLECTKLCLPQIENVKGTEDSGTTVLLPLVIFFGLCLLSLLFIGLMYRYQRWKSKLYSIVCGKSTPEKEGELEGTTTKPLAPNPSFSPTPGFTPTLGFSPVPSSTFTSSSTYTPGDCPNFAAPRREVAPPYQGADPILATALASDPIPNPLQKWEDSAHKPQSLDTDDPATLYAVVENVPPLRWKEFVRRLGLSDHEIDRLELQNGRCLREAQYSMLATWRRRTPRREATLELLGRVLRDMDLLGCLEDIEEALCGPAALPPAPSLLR
UniProt Q96B96: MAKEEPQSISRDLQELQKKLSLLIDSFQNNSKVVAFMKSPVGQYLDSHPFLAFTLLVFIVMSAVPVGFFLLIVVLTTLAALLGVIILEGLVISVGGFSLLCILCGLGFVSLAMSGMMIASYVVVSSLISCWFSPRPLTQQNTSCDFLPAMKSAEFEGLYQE
UniProt Q9NR96: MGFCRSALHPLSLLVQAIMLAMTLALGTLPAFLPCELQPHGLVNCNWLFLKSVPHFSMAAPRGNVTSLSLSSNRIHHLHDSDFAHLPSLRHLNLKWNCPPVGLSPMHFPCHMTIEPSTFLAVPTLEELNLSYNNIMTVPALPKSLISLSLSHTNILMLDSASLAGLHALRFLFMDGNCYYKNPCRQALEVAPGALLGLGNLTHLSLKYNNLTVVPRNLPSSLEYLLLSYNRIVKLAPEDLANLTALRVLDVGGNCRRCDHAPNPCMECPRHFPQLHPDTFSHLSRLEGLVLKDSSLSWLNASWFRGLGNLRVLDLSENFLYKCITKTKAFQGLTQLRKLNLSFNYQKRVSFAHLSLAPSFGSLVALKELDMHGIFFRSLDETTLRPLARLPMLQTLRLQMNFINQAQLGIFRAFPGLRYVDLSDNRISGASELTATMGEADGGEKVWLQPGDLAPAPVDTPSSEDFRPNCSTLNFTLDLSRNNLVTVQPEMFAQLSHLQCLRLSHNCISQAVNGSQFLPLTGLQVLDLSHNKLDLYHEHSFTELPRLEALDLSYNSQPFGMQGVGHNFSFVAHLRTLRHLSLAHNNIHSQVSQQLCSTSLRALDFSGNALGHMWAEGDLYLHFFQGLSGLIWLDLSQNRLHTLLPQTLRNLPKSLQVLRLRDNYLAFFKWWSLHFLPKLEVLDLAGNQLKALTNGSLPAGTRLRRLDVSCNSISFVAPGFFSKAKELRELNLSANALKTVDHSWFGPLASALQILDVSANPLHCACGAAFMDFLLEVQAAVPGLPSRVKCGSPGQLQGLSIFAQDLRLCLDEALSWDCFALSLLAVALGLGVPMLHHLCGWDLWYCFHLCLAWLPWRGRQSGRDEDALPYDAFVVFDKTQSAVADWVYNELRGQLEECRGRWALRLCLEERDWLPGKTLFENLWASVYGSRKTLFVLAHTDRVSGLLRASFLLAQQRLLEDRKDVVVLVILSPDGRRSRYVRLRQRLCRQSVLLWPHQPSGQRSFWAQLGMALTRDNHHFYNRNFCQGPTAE
UniProt Q5BJH2: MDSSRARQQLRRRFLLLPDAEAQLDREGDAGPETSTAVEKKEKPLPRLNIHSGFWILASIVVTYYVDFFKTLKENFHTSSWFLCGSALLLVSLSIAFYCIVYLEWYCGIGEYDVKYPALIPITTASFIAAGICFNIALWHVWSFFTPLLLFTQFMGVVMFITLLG
UniProt Q7Z7N9: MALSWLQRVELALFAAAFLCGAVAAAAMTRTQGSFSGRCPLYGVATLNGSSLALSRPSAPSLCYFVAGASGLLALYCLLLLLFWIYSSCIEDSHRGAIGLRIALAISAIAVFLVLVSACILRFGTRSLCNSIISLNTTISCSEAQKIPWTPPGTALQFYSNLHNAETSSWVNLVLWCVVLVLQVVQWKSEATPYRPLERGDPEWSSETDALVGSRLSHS
UniProt P55061, whole entry, looked up: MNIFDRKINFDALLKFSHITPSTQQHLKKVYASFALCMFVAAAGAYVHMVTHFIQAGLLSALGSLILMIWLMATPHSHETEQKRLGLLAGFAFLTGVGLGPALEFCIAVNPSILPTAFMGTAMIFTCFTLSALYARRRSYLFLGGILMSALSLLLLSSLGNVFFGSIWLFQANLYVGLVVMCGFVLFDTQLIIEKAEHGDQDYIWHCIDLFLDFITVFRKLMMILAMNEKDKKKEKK
UniProt Q9NS93: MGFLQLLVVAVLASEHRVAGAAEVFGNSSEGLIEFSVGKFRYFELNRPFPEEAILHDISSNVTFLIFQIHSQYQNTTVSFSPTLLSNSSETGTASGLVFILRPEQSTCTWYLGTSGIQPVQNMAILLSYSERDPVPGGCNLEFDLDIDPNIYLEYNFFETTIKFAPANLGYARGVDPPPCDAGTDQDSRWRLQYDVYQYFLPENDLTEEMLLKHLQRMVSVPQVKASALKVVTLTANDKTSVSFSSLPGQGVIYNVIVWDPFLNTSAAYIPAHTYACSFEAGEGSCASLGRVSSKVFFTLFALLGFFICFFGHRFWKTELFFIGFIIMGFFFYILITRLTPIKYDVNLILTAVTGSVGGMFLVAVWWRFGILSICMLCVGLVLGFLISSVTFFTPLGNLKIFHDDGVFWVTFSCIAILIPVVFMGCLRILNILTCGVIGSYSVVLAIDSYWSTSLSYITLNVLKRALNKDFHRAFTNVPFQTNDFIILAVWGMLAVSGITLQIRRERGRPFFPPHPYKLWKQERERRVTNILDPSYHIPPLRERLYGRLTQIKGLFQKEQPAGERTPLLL
UniProt Q8IY95: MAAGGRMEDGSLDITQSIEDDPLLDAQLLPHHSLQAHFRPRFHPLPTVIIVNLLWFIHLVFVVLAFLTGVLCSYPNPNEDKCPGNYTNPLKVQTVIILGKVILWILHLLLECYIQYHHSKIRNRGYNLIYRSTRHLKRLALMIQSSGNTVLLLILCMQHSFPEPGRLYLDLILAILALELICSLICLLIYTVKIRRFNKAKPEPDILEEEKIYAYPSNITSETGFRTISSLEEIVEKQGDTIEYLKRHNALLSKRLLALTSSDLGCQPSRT
UniProt Q9NVA4: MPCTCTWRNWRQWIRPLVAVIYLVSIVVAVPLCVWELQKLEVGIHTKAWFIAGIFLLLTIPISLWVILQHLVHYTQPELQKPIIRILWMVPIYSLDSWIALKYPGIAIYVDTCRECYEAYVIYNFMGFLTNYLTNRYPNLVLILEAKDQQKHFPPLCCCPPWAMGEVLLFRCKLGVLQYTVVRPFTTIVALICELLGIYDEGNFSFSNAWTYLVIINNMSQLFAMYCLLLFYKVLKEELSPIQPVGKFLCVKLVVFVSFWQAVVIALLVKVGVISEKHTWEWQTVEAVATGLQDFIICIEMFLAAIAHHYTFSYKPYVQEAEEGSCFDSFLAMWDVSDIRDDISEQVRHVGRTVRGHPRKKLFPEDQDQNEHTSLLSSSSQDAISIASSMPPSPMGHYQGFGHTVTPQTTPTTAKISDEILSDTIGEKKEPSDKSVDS
UniProt Q9P0T7: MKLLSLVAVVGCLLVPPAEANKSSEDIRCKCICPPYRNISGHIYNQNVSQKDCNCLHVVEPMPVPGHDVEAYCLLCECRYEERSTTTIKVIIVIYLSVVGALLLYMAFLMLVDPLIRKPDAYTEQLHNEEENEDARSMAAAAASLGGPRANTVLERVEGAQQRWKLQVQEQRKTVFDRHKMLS
UniProt Q96Q45: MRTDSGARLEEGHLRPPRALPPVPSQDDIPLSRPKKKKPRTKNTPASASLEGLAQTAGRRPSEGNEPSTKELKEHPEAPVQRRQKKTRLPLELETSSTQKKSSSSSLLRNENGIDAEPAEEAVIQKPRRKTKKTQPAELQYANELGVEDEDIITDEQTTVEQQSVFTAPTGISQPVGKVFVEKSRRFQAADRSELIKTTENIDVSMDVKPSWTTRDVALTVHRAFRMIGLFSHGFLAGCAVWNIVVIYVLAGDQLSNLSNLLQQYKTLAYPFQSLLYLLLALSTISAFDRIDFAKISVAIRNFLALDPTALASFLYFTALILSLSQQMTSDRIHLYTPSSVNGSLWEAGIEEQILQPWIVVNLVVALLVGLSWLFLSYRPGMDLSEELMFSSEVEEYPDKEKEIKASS
UniProt Q6UWJ1: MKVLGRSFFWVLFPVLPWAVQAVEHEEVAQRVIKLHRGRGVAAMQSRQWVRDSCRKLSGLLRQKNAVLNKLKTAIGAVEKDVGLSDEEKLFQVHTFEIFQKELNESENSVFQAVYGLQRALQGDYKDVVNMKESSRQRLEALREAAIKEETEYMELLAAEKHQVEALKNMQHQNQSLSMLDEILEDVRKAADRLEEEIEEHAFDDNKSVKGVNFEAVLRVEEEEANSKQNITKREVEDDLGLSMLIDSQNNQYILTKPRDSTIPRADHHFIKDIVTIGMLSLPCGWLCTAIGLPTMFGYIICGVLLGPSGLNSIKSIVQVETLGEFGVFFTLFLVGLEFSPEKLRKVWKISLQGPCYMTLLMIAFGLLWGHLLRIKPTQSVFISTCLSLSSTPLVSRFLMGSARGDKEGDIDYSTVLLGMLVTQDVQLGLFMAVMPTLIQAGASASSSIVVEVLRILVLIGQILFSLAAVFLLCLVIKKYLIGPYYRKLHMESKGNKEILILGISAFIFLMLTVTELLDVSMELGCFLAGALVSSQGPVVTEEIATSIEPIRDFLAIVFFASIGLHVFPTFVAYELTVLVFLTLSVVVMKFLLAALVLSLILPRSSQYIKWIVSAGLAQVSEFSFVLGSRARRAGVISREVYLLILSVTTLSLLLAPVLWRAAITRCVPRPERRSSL
UniProt Q5SNT2: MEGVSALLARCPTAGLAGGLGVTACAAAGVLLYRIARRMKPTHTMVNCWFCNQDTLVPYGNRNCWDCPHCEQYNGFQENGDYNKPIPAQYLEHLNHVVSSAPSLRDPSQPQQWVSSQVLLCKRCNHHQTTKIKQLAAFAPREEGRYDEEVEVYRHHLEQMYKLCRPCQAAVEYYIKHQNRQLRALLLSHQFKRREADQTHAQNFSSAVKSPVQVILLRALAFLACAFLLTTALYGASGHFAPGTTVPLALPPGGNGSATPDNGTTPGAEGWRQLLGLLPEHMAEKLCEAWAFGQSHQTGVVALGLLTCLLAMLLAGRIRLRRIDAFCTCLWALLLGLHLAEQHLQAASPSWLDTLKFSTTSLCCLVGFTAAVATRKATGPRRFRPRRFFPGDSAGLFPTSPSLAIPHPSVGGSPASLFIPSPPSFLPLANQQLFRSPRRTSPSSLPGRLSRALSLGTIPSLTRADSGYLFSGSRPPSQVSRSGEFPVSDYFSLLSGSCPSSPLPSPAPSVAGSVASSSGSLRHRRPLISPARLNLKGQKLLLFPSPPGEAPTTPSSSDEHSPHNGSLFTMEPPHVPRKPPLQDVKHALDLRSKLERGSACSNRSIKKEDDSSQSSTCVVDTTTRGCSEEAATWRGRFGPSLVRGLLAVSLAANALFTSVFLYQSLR
UniProt Q96HV5: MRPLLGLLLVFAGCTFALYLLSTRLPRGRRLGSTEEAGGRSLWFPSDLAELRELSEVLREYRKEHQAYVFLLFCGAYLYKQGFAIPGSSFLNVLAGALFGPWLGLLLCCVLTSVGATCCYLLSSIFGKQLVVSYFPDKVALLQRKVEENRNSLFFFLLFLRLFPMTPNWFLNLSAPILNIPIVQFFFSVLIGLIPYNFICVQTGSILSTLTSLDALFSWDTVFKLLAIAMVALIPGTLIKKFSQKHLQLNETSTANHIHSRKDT

How the values were obtained:
Assay in all cases: log2 fold change, soluble protein after heating vs DMSO (PISA); higher = thermal stabilisation; K562 cells, 10 uM, 30 min; active = over 0.2 and 3.5 SD of the protein, either way, in both replicates (recomputed)
[1] = compound: CS(=O)(=O)c1ccc(-c2cnc(N)c(C(=O)Nc3ccccc3)n2)cc1
Procedure, shortened: (§1)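 K562 cells at 2×10^6 cells/mL were treated with 10 μM compound for 30 min. Aliquots were heated for 3 min across 48°C-58°C, pooled, and extracted in PBS with 0.5% NP-40 at 4°C; soluble protein was the supernatant after 21,000xg for 90 min. Soluble protein was quantified by TMTpro 16plex LC-MS/MS with channel sums equalised, and reported as log2 fold change in thermal stability against DMSO controls, with values from duplicates.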

[2] = compound: C[C@@H]1COCCN1C2=NC(=NC(=C2)C3(CC3)S(=O)(=O)C)C4=C5C=CNC5=CC=C4
Procedure, shortened: as §1

[3] = compound: C[C@H](C1=CC=C(C=C1)C(=O)NC2=C3C=CNC3=NC=C2)N
Procedure, shortened: as §1

gandotinib = compound: Cc1cc(Nc2cc(CN3CCOCC3)c3nc(C)c(Cc4ccc(Cl)cc4F)n3n2)n[nH]1 [gandotinib]
Procedure, shortened: as §1

[4] = compound: Cc1cc(SCc2sc(-c3ccc(C(F)(F)F)cc3)nc2C)ccc1OCC(=O)O
Procedure, shortened: as §1

ispinesib = compound: Cc1ccc(C(=O)N(CCCN)[C@@H](c2nc3cc(Cl)ccc3c(=O)n2Cc2ccccc2)C(C)C)cc1 [ispinesib]
Procedure, shortened: as §1

bafetinib = compound: Cc1ccc(NC(=O)c2ccc(CN3CC[C@H](N(C)C)C3)c(C(F)(F)F)c2)cc1Nc1nccc(-c2cncnc2)n1 [bafetinib]
Procedure, shortened: as §1

[5] = compound: Cc1cccc(CC(=O)N2CCc3c2ccc(-c2cn(C)c4ncnc(N)c24)c3F)n1
Procedure, shortened: as §1

nilotinib = compound: Cc1cn(-c2cc(NC(=O)c3ccc(C)c(Nc4nccc(-c5cccnc5)n4)c3)cc(C(F)(F)F)c2)cn1 [nilotinib]
Procedure, shortened: as §1

[6] = compound: Cc1nc(Nc2n[nH]c3c2CN(C(=O)N[C@H](CN(C)C)c2ccccc2)C3(C)C)c2sccc2n1
Procedure, shortened: as §1

dasatinib = compound: Cc1nc(Nc2ncc(C(=O)Nc3c(C)cccc3Cl)s2)cc(N2CCN(CCO)CC2)n1 [dasatinib]
Procedure, shortened: as §1

[7] = compound: Cc1ncc(-c2ccnc(Nc3ccc(S(C)(=O)=O)cc3)n2)n1C(C)C
Procedure, shortened: as §1

[8] = compound: Cn1cc(-c2ccc3c(c2)CCN3C(=O)Cc2cccc(C(F)(F)F)c2)c2c(N)ncnc21
Procedure, shortened: as §1

[9] = compound: Cn1cc(-c2ccc3nnc(C(F)(F)c4ccc5ncccc5c4)n3n2)cn1
Procedure, shortened: as §1

tipifarnib = compound: Cn1cncc1[C@@](N)(c1ccc(Cl)cc1)c1ccc2c(c1)c(-c1cccc(Cl)c1)cc(=O)n2C [tipifarnib]
Procedure, shortened: as §1

mubritinib = compound: FC(F)(F)c1ccc(/C=C/c2nc(COc3ccc(CCCCn4ccnn4)cc3)co2)cc1 [mubritinib]
Procedure, shortened: as §1

duvelisib = compound: C[C@H](Nc1ncnc2nc[nH]c12)c1cc2cccc(Cl)c2c(=O)n1-c1ccccc1 [duvelisib]
Procedure, shortened: as §1

tozasertib = compound: Cc1cc(Nc2cc(N3CCN(C)CC3)nc(Sc3ccc(NC(=O)C4CC4)cc3)n2)n[nH]1 [tozasertib]
Procedure, shortened: as §1

crizotinib = compound: C[C@@H](Oc1cc(-c2cnn(C3CCNCC3)c2)cnc1N)c1c(Cl)ccc(F)c1Cl [crizotinib]
Procedure, shortened: as §1

doramapimod = compound: Cc1ccc(-n2nc(C(C)(C)C)cc2NC(=O)Nc2ccc(OCCN3CCOCC3)c3ccccc23)cc1 [doramapimod]
Procedure, shortened: as §1

Measured: log2 fold change

TMBIM1 (UniProt Q969X1)
inactive: [1] -0.03 | [2] -0.043 | [3] 0.274 | gandotinib -0.017 | [4] -0.026 | ispinesib 0.303 | bafetinib 0.068 | [5] -0.07 | nilotinib 0.168 | [6] -0.044 | dasatinib -0.01 | [7] 0.149 | [8] -0.06 | [9] -0.105 | tipifarnib -0.318 | mubritinib 0.025

TNFRSF1A (UniProt P19438)
inactive: [1] 0.413 | [2] -0.148 | [3] 0.154 | duvelisib 0.3 | gandotinib 0.162 | tozasertib 0.012 | [4] -0.037 | [5] -0.171 | dasatinib -0.128 | [8] -0.144 | tipifarnib -0.096

TMEM159 isoform 2 (UniProt Q96B96)
inactive: [1] -0.014 | [2] 0.002 | duvelisib 0.215 | gandotinib -0.133 | tozasertib 0.086 | [4] -0.219 | bafetinib -0.023 | [5] 0 | nilotinib -0.08 | [6] 0.165 | dasatinib -0.146 | [7] 0.065 | mubritinib 0.166

TLR9 isoform 4 (UniProt Q9NR96)
inactive: [1] -0.004 | [2] 0.107 | [3] -0.161 | duvelisib 0.184 | tozasertib -0.334 | [4] 0.147 | ispinesib 0.117 | bafetinib 0.014 | nilotinib -0.007 | [6] 0.078 | dasatinib -0.201 | [7] 0.051 | [8] -0.226 | [9] 0.001 | mubritinib 0.064

TMEM128 (UniProt Q5BJH2)
inactive: [1] 0.001 | crizotinib 0.234 | [2] -0.062 | [3] 0.025 | [4] 0.016 | doramapimod -0.138 | ispinesib 0.021 | bafetinib -0.065 | nilotinib -0.008 | [6] 0.003 | dasatinib -0.01 | [7] -0.031 | [8] 0.061 | [9] -0.021 | tipifarnib 0.066

TMEM268 isoform 3 (UniProt Q5VZI3)
inactive: [1] -0.146 | [2] -0.308 | [3] -0.078 | gandotinib 0.124 | [4] -0.063 | ispinesib -0.227 | bafetinib 0.318 | [5] -0.096 | nilotinib 0.008 | [6] -0.005 | dasatinib -0.194 | [7] 0.165 | [8] 0.112 | [9] 0.014 | tipifarnib 0.003 | mubritinib 0.109

TMEM179B (UniProt Q7Z7N9)
inactive: [1] -0.005 | crizotinib -0.167 | [2] 0.101 | [3] -0.165 | gandotinib -0.138 | doramapimod 0.071 | ispinesib -0.099 | bafetinib -0.074 | [5] -0.065 | nilotinib 0.046 | [6] -0.018 | [7] -0.013 | [8] 0.154 | [9] 0.019 | tipifarnib 0.167 | mubritinib -0.025

TMEM263 (UniProt Q8WUH6)
inactive: [1] 0.03 | [2] -0.029 | [3] 0.018 | gandotinib -0.385 | [4] 0.046 | doramapimod -0.075 | bafetinib -0.434 | [5] 0.037 | nilotinib -0.079 | [6] -0.027 | dasatinib -0.249 | [7] 0.124 | [8] -0.011 | [9] 0.02 | tipifarnib -0.182 | mubritinib 0.054
active: crizotinib -0.717 | ispinesib -0.936

Random excerpt: 2 entries already listed
TLR9 isoform 4 (UniProt Q9NR96)
inactive: [1] -0.004 | [2] 0.107 | [3] -0.161 | duvelisib 0.184 | tozasertib -0.334 | [4] 0.147 | ispinesib 0.117 | bafetinib 0.014 | nilotinib -0.007 | [6] 0.078 | dasatinib -0.201 | [7] 0.051 | [8] -0.226 | [9] 0.001 | mubritinib 0.064

TMEM263 (UniProt Q8WUH6)
inactive: [1] 0.03 | [2] -0.029 | [3] 0.018 | gandotinib -0.385 | [4] 0.046 | doramapimod -0.075 | bafetinib -0.434 | [5] 0.037 | nilotinib -0.079 | [6] -0.027 | dasatinib -0.249 | [7] 0.124 | [8] -0.011 | [9] 0.02 | tipifarnib -0.182 | mubritinib 0.054
active: crizotinib -0.717 | ispinesib -0.936

Carrying on:

TMBIM6 isoform 2 (UniProt P55061)
inactive: [1] -0.066 | [2] 0.033 | [3] -0.049 | [4] -0.03 | doramapimod -0.053 | ispinesib -0.407 | bafetinib -0.135 | nilotinib -0.158 | [6] 0.028 | dasatinib -0.081 | [7] -0.037 | [8] 0.063 | [9] -0.073 | tipifarnib -0.269 | mubritinib 0.036
active: crizotinib -0.451

TM7SF3 (UniProt Q9NS93)
active: crizotinib -0.432 | ispinesib -0.343
inactive: [1] -0.01 | [3] -0.216 | [4] -0.003 | doramapimod 0.052 | bafetinib -0.147 | nilotinib -0.004 | [6] 0.005 | dasatinib 0.005 | [7] -0.029 | [8] -0.034 | [9] 0.034 | tipifarnib 0.019 | mubritinib 0.147

TMEM192 (UniProt Q8IY95)
active: crizotinib -0.45 | ispinesib -0.318
inactive: [1] 0.074 | [2] 0.043 | [3] 0.04 | gandotinib 0.059 | [4] -0.022 | doramapimod 0.024 | bafetinib -0.148 | [5] -0.083 | nilotinib 0.019 | [6] -0.002 | dasatinib 0.109 | [7] -0.042 | [8] -0.034 | [9] -0.051 | tipifarnib 0.051 | mubritinib -0.032

TMEM184C (UniProt Q9NVA4)
inactive: [1] 0.117 | crizotinib -0.267 | [2] 0.019 | [3] -0.049 | gandotinib -0.038 | [4] 0.036 | doramapimod 0.019 | bafetinib -0.132 | [5] -0.111 | nilotinib -0.007 | [6] -0.047 | dasatinib 0.116 | [7] -0.009 | [8] 0.15 | [9] -0.092 | mubritinib 0.01
active: ispinesib -0.365

TMEM9 (UniProt Q9P0T7)
inactive: [1] -0.026 | crizotinib -0.026 | [2] 0.029 | [3] -0.197 | gandotinib -0.026 | [4] 0.014 | doramapimod 0.048 | ispinesib -0.093 | bafetinib 0.028 | [5] -0.048 | nilotinib -0.017 | [6] -0.022 | dasatinib -0.087 | [7] -0.037 | [8] 0.057 | [9] -0.007 | tipifarnib -0.068 | mubritinib 0.025

TMEM189-UBE2V1 (UniProt I3L0A0)
active: [6] 0.229
inactive: [1] 0.063 | crizotinib 0.022 | [2] 0.051 | [3] 0.051 | gandotinib 0.007 | [4] -0.034 | doramapimod 0.021 | ispinesib 0.071 | bafetinib -0.038 | [5] -0.035 | nilotinib -0.012 | dasatinib -0.009 | [7] 0.055 | [8] 0.015 | [9] 0.069 | tipifarnib 0.056 | mubritinib 0.026

TMEM167B (UniProt Q9NRX6)
inactive: [1] 0.049 | crizotinib 0.047 | duvelisib 0.032 | gandotinib 0.046 | tozasertib -0.007 | [4] -0.013 | doramapimod -0.021 | ispinesib 0.02 | bafetinib -0.075 | [5] -0.093 | nilotinib 0.027 | [6] 0.003 | dasatinib 0.035 | [7] -0.001 | [9] -0.029 | tipifarnib 0.106 | mubritinib 0.01

TMEM237 isoform 3 (UniProt Q96Q45)
inactive: [1] -0.054 | [2] -0.627 | gandotinib -0.23 | tozasertib -0.325 | [5] -0.116 | mubritinib -0.08

TMCO3 (UniProt Q6UWJ1)
inactive: [1] -0.086 | [2] -0.026 | duvelisib 0.115 | gandotinib -0.136 | [4] -0.048 | ispinesib -0.142 | [5] -0.203 | dasatinib 0.058 | [9] 0.037 | mubritinib -0.162

TMEM201 (UniProt Q5SNT2)
inactive: [1] 0.058 | [2] 0.159 | [3] -0.002 | duvelisib -0.121 | gandotinib 0.013 | tozasertib -0.096 | [4] 0.106 | ispinesib -0.133 | bafetinib -0.059 | [5] -0.02 | nilotinib -0.064 | [6] -0.055 | dasatinib -0.285 | [7] -0.178 | [8] -0.094 | [9] -0.079 | mubritinib -0.39

TMEM41A (UniProt Q96HV5)
active: [5] 0.276
inactive: [1] -0.023 | crizotinib 0.139 | [2] 0.137 | gandotinib -0.044 | [4] 0 | doramapimod 0.025 | ispinesib 0.065 | bafetinib -0.037 | nilotinib -0.008 | [6] -0.01 | dasatinib 0.054 | [7] -0.049 | [9] 0.082 | tipifarnib 0.026 | mubritinib 0.062
